# Assay results reported in patent publication US20080026088A1, “Reduced isoalpha acid based protein kinase modulation cancer treatment” (Metaproteomics, LLC, priority 2006, published 2008).
# At least one compound was matched to its structure with a doubt left.
# Tested on: NF-κB
# Test: NF-κB DNA binding, TransAM kit, nuclear extracts of LPS RAW 264.7 cells
# Format: cell-based, murine
# Conditions: LPS 4 h; MgRIAA 55 and 14 μg/ml, parthenolide 80 μM, LY294002 25 μM
compound,measurement,value
O=c1cc(N2CCOCC2)oc2c(-c3ccccc3)cccc12 [LY294002],NF-κB DNA binding,modest decrease
